In paper PMC10206301 one finds binding data, which are given here for 1 molecule.

By UniProt entry, the sequences of proteins in these tests, tags left out. Residues count along the entry.
UniProt P22646, residues 22-189: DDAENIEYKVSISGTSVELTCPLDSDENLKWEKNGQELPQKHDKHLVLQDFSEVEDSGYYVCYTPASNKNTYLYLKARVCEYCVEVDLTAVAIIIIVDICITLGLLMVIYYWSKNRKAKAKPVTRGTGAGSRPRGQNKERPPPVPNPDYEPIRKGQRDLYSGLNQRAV

The target in the experiment is endogenous CD3ϵ of primary mouse CD3+ T cells (mouse (endogenous in primary CD3+ T cells)) (UniProt P22646). The experiment in a line: co-IP; endogenous proteins; lysate of primary mouse CD3+ T cells immunoprecipitated with rat anti-CD3ϵ antibody, rat IgG as control; immunoblot. (In western blotting, separated proteins are transferred to a membrane and probed.)

No constants are given. Whether binding was seen depends on the method and setting. Binding seen in cells or lysates may run through a third protein. Some binding calls cover weakened binding; strength is not graded here.

B1: endogenous CCDC134 of primary mouse CD3+ T cells (protein, UniProt Q8C7V8 23-229)
chain: ALKSTLDPSLKIYKKMFEVKRREQLLALKNLAQLNDIHQQYKILDVMLKGLFKVLEDSRTVLIAADVLPDGPVPQDEKLKDAFSHVVENTAFFGDVVLRFPKIVHHYFDHNSNWNLLIRWGISFCNQTGVFDQGPHSPILSLMAQELGITEKDSDFRNPFKTDQTEFIPSTDPFQKALREEEKRRKKEERRKEIRKGPRISRSQSEL
For the molecule B1, the binding result was “binds”.
